# Measurements from PMC8192393.
# Amino acid sequences for entries named in this document (tags omitted). A change or cut given only in a name is not applied to a line headed by its entry. Chains listed by the source or under a name are the forms on record and can include a tag or linker. Residues count along the entry.
# UniProt Q7Z333: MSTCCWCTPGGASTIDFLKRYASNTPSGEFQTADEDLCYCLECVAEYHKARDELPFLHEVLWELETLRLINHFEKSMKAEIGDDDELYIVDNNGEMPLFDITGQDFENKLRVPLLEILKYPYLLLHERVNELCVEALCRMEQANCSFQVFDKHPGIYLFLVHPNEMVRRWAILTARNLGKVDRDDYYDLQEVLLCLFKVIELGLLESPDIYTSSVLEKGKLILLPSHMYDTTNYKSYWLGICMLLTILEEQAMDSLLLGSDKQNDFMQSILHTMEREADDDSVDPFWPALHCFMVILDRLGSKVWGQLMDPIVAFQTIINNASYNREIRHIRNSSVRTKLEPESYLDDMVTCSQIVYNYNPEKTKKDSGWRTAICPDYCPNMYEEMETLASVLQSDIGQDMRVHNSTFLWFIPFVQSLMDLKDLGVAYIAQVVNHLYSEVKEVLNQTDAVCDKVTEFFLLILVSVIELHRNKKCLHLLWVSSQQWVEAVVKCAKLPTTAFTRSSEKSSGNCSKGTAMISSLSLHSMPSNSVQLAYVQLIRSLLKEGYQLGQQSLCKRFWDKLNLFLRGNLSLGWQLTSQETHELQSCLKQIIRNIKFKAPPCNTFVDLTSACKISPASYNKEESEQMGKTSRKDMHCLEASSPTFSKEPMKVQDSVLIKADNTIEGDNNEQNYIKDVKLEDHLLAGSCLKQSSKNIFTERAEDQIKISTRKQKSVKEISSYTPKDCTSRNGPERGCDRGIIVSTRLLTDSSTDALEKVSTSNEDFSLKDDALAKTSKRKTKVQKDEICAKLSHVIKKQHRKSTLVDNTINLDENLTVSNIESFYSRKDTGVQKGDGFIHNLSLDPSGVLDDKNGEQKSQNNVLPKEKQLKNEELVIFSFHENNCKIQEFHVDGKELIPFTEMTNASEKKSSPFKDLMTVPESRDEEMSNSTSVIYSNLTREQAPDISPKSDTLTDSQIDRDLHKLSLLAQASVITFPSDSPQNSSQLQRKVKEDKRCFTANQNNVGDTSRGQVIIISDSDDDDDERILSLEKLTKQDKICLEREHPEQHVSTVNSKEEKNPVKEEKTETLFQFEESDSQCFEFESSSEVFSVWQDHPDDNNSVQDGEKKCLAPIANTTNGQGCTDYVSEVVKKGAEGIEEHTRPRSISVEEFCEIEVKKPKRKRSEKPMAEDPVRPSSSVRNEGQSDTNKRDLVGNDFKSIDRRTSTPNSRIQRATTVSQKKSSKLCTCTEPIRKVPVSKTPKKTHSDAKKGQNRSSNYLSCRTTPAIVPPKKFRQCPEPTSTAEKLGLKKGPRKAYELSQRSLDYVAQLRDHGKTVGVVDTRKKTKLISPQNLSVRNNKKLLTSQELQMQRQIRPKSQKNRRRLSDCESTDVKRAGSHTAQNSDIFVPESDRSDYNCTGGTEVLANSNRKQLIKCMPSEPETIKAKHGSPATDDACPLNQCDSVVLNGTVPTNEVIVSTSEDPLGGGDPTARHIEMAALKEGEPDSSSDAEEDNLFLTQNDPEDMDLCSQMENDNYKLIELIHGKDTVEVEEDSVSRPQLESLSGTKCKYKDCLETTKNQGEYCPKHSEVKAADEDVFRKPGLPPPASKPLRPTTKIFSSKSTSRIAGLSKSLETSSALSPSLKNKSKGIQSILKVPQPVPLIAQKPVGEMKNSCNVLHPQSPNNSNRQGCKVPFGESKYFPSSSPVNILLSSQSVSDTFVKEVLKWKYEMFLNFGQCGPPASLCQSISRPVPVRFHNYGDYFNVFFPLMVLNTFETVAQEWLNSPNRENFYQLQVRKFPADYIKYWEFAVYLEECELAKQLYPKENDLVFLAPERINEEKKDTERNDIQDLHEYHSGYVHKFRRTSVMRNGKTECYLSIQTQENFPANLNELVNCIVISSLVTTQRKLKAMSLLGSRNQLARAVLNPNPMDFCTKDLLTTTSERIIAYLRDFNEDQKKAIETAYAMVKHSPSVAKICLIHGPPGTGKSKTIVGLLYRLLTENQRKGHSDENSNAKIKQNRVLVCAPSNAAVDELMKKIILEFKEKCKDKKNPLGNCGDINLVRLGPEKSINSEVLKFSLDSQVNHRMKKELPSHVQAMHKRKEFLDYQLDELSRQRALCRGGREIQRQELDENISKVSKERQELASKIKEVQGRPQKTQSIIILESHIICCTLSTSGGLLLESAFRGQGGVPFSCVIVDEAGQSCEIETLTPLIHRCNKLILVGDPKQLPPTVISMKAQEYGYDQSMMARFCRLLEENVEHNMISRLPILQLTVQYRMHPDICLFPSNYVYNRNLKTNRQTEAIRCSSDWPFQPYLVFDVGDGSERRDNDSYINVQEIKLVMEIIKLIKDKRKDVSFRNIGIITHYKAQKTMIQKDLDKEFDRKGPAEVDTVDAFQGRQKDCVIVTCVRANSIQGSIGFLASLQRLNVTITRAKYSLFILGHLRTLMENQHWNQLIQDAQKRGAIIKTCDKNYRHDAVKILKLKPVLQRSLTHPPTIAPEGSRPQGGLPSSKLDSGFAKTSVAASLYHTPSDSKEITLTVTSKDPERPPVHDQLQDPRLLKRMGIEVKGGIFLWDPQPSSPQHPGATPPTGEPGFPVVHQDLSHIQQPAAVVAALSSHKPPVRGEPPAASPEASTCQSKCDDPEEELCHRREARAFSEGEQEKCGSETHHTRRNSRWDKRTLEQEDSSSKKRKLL
# EGFP-tagged wild type human prelamin A/C (lamin A) (P02545, residues 2-664): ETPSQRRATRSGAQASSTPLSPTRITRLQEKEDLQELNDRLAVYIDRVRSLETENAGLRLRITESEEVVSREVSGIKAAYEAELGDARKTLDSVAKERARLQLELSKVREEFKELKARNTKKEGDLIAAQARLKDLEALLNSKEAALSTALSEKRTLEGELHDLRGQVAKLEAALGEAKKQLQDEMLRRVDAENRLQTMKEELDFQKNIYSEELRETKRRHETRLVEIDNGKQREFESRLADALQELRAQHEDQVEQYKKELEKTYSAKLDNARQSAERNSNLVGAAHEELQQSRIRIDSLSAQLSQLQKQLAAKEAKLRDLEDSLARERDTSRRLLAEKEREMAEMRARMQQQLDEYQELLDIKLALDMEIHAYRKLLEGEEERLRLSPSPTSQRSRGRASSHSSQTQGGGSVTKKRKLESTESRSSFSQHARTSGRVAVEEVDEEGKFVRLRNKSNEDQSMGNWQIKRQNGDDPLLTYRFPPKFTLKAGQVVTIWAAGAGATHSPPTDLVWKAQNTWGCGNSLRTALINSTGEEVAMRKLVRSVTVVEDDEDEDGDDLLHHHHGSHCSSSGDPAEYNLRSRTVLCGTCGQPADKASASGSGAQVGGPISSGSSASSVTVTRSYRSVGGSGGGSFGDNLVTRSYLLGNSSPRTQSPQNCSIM
# EGFP-tagged G602S lamin A (pEGFP-G602S-Lamin) (P02545, form named): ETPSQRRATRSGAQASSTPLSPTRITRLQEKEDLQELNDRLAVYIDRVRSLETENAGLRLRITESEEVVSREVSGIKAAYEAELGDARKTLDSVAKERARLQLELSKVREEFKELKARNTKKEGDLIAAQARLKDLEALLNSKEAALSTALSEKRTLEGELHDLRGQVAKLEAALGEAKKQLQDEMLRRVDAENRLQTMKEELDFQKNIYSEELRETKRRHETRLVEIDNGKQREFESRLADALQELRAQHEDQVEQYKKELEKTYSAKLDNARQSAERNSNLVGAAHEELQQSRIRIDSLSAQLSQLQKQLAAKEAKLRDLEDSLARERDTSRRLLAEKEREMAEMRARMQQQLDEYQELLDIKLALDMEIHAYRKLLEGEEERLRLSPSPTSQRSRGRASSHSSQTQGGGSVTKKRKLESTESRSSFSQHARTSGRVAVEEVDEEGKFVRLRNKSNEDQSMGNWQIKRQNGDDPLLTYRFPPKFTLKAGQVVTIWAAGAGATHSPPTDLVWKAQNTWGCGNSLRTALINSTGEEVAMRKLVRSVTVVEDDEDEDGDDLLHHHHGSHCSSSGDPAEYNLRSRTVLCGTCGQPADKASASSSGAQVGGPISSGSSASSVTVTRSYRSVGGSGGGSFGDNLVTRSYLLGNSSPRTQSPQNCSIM
# UniProt P35637: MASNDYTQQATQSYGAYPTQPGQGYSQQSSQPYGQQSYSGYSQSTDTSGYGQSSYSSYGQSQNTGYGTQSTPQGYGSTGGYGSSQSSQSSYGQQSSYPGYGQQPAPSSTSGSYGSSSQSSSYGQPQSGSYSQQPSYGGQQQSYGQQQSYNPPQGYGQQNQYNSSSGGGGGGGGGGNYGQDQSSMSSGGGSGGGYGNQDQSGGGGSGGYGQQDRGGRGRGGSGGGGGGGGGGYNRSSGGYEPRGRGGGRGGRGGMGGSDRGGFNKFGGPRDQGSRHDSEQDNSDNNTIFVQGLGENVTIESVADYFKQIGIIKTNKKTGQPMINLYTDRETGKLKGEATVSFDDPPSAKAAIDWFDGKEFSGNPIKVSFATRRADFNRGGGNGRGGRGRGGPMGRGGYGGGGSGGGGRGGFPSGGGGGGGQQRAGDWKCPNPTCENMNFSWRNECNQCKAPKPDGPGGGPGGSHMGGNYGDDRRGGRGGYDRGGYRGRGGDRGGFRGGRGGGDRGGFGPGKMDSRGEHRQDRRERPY
# EGFP-tagged FUS p.Gly167_Gly168del (P35637, form named): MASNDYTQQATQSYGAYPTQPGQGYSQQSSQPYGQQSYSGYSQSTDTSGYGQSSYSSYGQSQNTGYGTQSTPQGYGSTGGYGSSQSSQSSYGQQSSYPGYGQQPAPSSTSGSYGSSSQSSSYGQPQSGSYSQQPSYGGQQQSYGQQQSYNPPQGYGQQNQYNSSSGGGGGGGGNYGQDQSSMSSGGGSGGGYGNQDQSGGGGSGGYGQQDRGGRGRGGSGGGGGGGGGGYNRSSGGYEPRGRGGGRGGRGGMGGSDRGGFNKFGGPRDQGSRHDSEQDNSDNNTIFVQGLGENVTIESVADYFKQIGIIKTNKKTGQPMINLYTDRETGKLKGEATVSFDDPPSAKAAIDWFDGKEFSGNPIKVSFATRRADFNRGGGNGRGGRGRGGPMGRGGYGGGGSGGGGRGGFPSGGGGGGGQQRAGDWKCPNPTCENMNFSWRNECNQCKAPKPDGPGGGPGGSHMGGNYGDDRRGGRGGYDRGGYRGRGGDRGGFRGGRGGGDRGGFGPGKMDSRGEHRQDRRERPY
# Results are given in words; binding and its absence hold for the method and conditions named. Binding seen in cells or lysates may run through a third protein. Some binding calls cover weakened binding; strength is not graded here.
# Target: wild type human SETX-Flag (senataxin) (human) (UniProt Q7Z333)
# Assay: co-IP; HEK293T cells co-expressing EGFP-FUS or EGFP-LMNA with SETX; NP40 lysis buffer (50 mM Tris pH 8.0, 100 mM NaCl, 1 mM EDTA, 1% NP40, 10% glycerol); 1 mg total protein, IP with 1 ug anti-SETX antibody and pansorbin, 1 h at RT; western blot for WT or MT FUS and LMNA
row,Substance,binding
1,EGFP-tagged wild type human prelamin A/C (lamin A) (from UniProt P02545 2-664),binds
2,EGFP-tagged wild type human FUS (fused in sarcoma) (from UniProt P35637 1-526),binds
3,EGFP-tagged FUS p.Gly167_Gly168del (from UniProt P35637 1-526),no binding
4,EGFP-tagged G602S lamin A (pEGFP-G602S-Lamin) (from UniProt P02545 2-664),binds
